{"source": "patent US20020123480A1", "about": "“Methods and compositions utilizing 2'-5' oligoadenylates in the treatment of disorders of cell proliferation” (priority 2000, published 2002)", "tested_on": "primary human cervical keratinocytes (PHK)", "test": "Growth of control primary human cervical keratinocytes, Coulter Counter cell count", "type": "cell-based"}
{"substance": "2′,3′-cyclophosphateadenylyl(2′,5′)adenylyl-(2′,5′)adenosine [Cmpd. I]", "values": [{"measurement": "Ratio of IC50 at day 3 to IC50 at day 5", "setting": "Day 5", "result": 0.7}, {"measurement": "Ratio of IC50 at day 3 to IC50 at day 7", "setting": "Day 7", "result": 0.4}, {"measurement": "Ratio of IC50 at day 3 to IC50 at day 10", "setting": "Day 10", "result": 0.4}]}
